According to patent publication US11859252B2, “Diagnostic and therapeutic methods for cancer” (Genentech, Inc., priority 2017, dated 2024):
For part of these data: For at least one compound, name, drawing or mass did not settle the structure. Some of these results come from one statement about several compounds together.

Experiments:
Type in all cases: cell-based
[1] = system: pMEK, pERK, pRSK, pAKT; assay: Immunoblot of pathway markers after compound treatment; conditions: for induction of pMEK: A549 cells, 24 hours at 1 μM, FIG. 1F
Experimental: Cells lysed in lysis buffer (0.5% NP40, 20 mM Tris, pH 7.5, 137 mM NaCl, 10% glycerol, 1 mM EDTA) plus protease inhibitor mixture-complete mini (Roche Applied Science, 11836170001) and phosphatase inhibitor mix (Thermo, 78426). Lysates were centrifuged at 15,000 rpm for 10 minutes and the protein concentration determined using BCA (Thermo, 23227). Equal amounts of protein were subjected to SDS-PAGE NuPAGE 4-12% Bis-Tris Gel (Novex, WG-1403) and transferred to nitrocellulose membrane (BioRad, 170-4159). After blocking in blocking buffer (Li-Cor, 927-40000), membranes were incubated with the indicated primary antibodies and analyzed either by the addition of secondary antibodies IRDye 680LT Goat anti-Mouse IgG (H+L) (Li-Cor, 926-68050) or IRDye 800CW goat anti-Rabbit IgG (H+L) (Li-Cor, 926-32211). The membranes were visualized on the LiCor Odyssey CLx Scanner.

[2] = system: A549 cells; assay: 12×12 matrix titration, Bliss excess, […]-GLO; conditions: full-dose Bliss matrix, 3 days, FIG. 1G
Experimental: For combination synergy studies, cells were plated in 384-well plates (Corning) and treated with varying concentrations of compound, either alone or in combination for 72 hours. Cell viability was determined using CellTiter-Glo Luminescent Cell Viability Assay (Promega, G7573). Synergistic effects were determined using the Bliss independence analysis methods (Greco et al. Pharmacol. Rev. 47: 331-385, 1995; Chou and Talalay. Adv. Enzyme Regul. 22:27-55, 1984; Chou. Cancer Res. 70: 440-446, 2010; Bliss. Ann. Appl. Biol. 25: 31, 1939).

[3] = system: A549 KRAS-mutant lung cancer cell line; assay: Tool compound combination screen with AZ-628; conditions: 1 μM AZ-628 versus DMSO, FIG. 1D-1E
Experimental: A compound library comprising 480 compounds arrayed in 9-point dose response was screened in the absence or presence of a fixed dose of either AZ-628 or DMSO in A549 cells. A549 cells were seeded into 384 well plates, and compound was added 24 h later. Cell viability was determined 120 h post-compound addition (CellTiter Glo). Curves were fitted, and both IC50 and mean viability metrics were calculated. The IC50 is the dose at which inhibition is 50% relative to untreated wells. The mean viability is the average of the fitted viabilities at each tested dose. Mean viability is equivalent to the area under the log-dose/viability curve divided by the total number of tested doses. All data were fitted using Genedata Screener (GDS) software. The combination metric was the difference in mean viability between the AZ-628 treated arm and the DMSO treated arm for each compound.

[4] = system: A549 and HCT116 cells; assay: 12×12 matrix Bliss analysis of AZ-628 with PI3K/AKT inhibitors; conditions: full dose matrix; FIG. 7F
[5] = system: BRAF-V600E cell lines; assay: 3-day […]-GLO viability assay of RAF inhibitors, BRAF-V600E lines; conditions: single agent; BRAF-V600E mutant cell lines; FIG. 1A
Experimental: (§1) Seeding densities were optimized for each cell line to obtain 70-80% confluence after 4 days. The cells were plated into 384-well plates (Griener, 781091) and then treated with compound the following day in a final DMSO concentration of 0.1%. The relative numbers of viable cells were measured by luminescence using CellTiter-Glo (Promega, G7573). Viability curves were generated using a four-parameter fit in GraphPad Prism 6.

[6] = system: KRAS mutant cell lines; assay: 3-day […]-GLO viability assay of RAF inhibitors, KRAS mutant lines; conditions: single agent, FIG. 1A
Experimental: as §1

[7] = system: pMEK; assay: Phospho (Ser 217/221)/Total MEK1/2 assay; conditions: KRAS mutant; ratio of P-MEK and total MEK; FIG. 1B
Experimental: Cells were plated at a density of 20,000 cells per 96-well and treated with compound the following day for two hours in a final concentration of 0.2% DMSO. After two hours, the cells were lysed according to manufacturer's protocol (Meso Scale Discovery, K15129D), and the lysates were added to BSA-blocked plates for overnight capture at 4° C. The following day the assay plates were washed three times with TBST and the detection antibody was added for one hour at RT. The plates were then washed three times with TBST. 1× read buffer was added to the plate and immediately read on the Meso Scale Discovery SECTOR Imager 6000. Curves were generated using Graph Pad Prism 6.

Row | SMILES | induction of pMEK [1] | synergy with AZ-628 (Bliss excess) [2] | hit ranking / mean viability difference with AZ-628 [3] | lower synergy with AZ-628 than other PI3K inhibitors [4] | other results
1 | CC(=O)Nc1cccc(-n2c(=O)n(C3CC3)c(=O)c3c(Nc4ccc(I)cc4F)n(C)c(=O)c(C)c32)c1 [trametinib] | do not induce pMEK | less synergistic with AZ-628 | did not show a difference in mean viability | – | –
2 | CC(C)NC[C@@H](C(=O)N1CCN(c2ncnc3c2[C@H](C)C[C@H]3O)CC1)c1ccc(Cl)cc1 [ipatasertib] | – | – | – | 2-3 fold | –
3 | O=C(NOCCO)c1ccc2cncn2c1Nc1ccc(I)cc1F [GDC-0623] | do not induce pMEK | less synergistic with AZ-628 | did not show a difference in mean viability | – | –
4 | Cc1nc(NC(=O)N2CCC[C@H]2C(N)=O)sc1-c1ccnc(C(C)(C)C(F)(F)F)c1 [alpelisib] | – | – | – | 2-3 fold | –
5 | CCCS(=O)(=O)Nc1ccc(F)c(C(=O)c2c[nH]c3ncc(-c4ccc(Cl)cc4)cc23)c1F [vemurafenib] | – | – | – | – | MAPK pathway output (pMEK, pERK, pRSK) ([1]; A549, RAF inhibitor 0.1-10 μM with or without fixed dose cobimetinib, 24 hours, FIG. 2B): unable to decrease pathway signaling in the presence or absence of cobimetinib; activity in cell viability assay [5]: showed activity in BRAF-V600E mutant cell lines; activity in cell viability assay [6]: but not in KRAS mutant cell lines; paradoxical activation of downstream pMEK [7]: led to paradoxical activation of downstream pMEK in KRAS mutant tumors
